{"source": "PubChem BioAssay AID1745851", "about": "(National Center for Advancing Translational Sciences (NCATS), 2022)", "note": "This list was built around the results that the source calls inconclusive (neither active nor inactive); the mix of calls is not that of the screen. Where the call is inconclusive, the potency comes from a doubtful curve fit. Active and inactive are the calls of the source. Calls follow the shape of the dose curve; as a rule, active = well fitted inhibition curve with a large enough effect; inconclusive = small, poorly fitted or top-dose-only effect; inactive = flat fitted curve, though single readings scatter."}
{"assay": "Counterscreen for Target Class Profiling of Small Molecule Inhibitors of Methyltransferases; also: potency is read from the fitted curve at half-maximal effect", "conditions": "MTase-Glo coupled enzymes, SAH conversion luminescence, no MTase; series mostly up to 57.3 µM", "source_text": "PI: Matthew D. Hall Ph.D. and Quinlin M. Hanson Ph.D. National Center for Advancing Translational Sciences (NCATS) National Institute of Health (NIH) Rockville, MD Target class profiling (TCP) is a chemical biology approach amenable to investigating understudied biological targets. TCP is achieved by developing a generalizable assay platform and applying it to screen a curated set of compound libraries against representative members of a target class. Small molecule methyltransferases (SMMTase) are a subclass of methyltransferase that act on metabolites to modulate signaling pathways, metabolize xenobiotics, or balance the available methyl pool. We screened four curated libraries totaling 27,574 unique compounds against the SMMTases nicotinamide N-methyltransferase (NNMT), phenylethanolamine N-methyltransferase (PNMT), histamine N-methyltransferase (HNMT), glycine N-methyltransferase (GNMT), catechol O-methyltransferase (COMT), and guanidinoacetate N-methyltransferase (GAMT). The data generated by this TCP can be leveraged for informed tool molecule development. For example, in the associated publication we identified a chemotype of HNMT-selective inhibitors. Additionally, we identified a putative SMMTase-selective inhibitor with potential as a tool molecule for studying broader methyltransferase biology. High-through put screening assays were developed at the National Center for Advancing Translational Science (NCATS) for the enzymes NNMT, PNMT, HNMT, GNMT, COMT, and GAMT. Enzymatic activity was measured as a function of SAM cofactor conversion using the MTase Glo kit (Promega) for all enzymes. All assays were performed in 1536-well format with substrates and SAM concentrations at KM values. Enzyme concentration and assay timing were optimized for 10-20% SAM conversion. Initial screening of 27,574 compounds was done as single-point assays using the highest compound concentration (40 uM). 1,434 compounds were identified as hits (at least 50% inhibition) under these conditions. These compounds were replated in 11-point dose response and assayed against NNMT, PNMT, HNMT, GNMT, COMT, GAMT, and a counter-assay. The IC50 and efficacy (maximal response) values were determined for each dose-response curve. These values are also accounted for in the area under the curve (AUC) values.\nPROTOCOL TABLE (as described by Inglese J, Shamu CE and Guy RK. 2007) SEQUENCE No. (e.g., 1, 2, 3, etc.); PARAMETER (e.g., Cells, Incubation, Reagent, etc.); VALUE; DESCRIPTION. 1; Reagent; 3 uL; SAH (16 uM) in reaction buffer, columns 1-48. 2; Reagent; 1 uL; SAM (4x) in reaction buffer, columns 1-48. 3; Controls; 23 nL; DMSO in column 4; sinefungin in DMSO (0 uM - 40 uM) in 7-point 1:2 dilution series (n = 2) in column 2. 4; Compounds; 23 nL; Columns 5-48. 5; Time; 20 min; Incubation. 6; Reagent; 1 uL; MTase-Glo reagent (5X), columns 1-48. 7; Time; 30 min; Incubation. 8; Reagent; 5 uL; MTase-Glo Detection reagent, columns 1-48. 9; Time; 30 min; Incubation. 10; Detection; Luminescence; ViewLux uHTS Microplate Imager (PerkinElmer). NOTES (numbers refer to Sequence numbers above) 1, 2. White Medium Binding 1536-well plates (white, flat bottom, medium binding Cat# AWK010000A, Aurora Microplates, Scottsdale, AZ); Reaction buffer: 50 mM Tris, pH 8.0, 3 mM MgCl2, 1 mM EDTA, 50 mM NaCl, 1 mM DTT, and 0.1 mg/mL BSA; refer to tables 2 and S1 for specific reagent concentrations. 3, 4. Pintool transfer 5, 7, 9. Room temperature 5. Final reaction conditions: 1 uM SAH, 4 uM SAM, 50 mM Tris, pH 8.0, 3 mM MgCl2, 1 mM EDTA, 50 mM NaCl, 1 mM DTT, and 0.1 mg/mL BSA. 7. Conversion of SAH to ADP; MTase Glo Kit (Promega, Madison, WI). 9. Conversion of ADP to ATP and detection by UltraGlo luciferase; MTase Glo Kit (Promega, Madison, WI). 10. Settings: 20 s exposure, 1X binning, high gain, medium speed. REFERENCES: Inglese J, Shamu CE and Guy RK, Reporting data from high throughput screening of small molecule libraries, Nature Chemical Biology, 2007, 3(8): 438-441. doi.org/10.1038/nchembio0807-438. […]"}
{"compound": "CCNc1nc2c(s1)C(c1cccc(F)c1)CC(=O)N2", "note": "(stereo unspecified)", "Potency": "inconclusive: 30.4 µM [inhibitor, partial curve, poor fit]"}
{"compound": "O=C(Nc1ccc2ncnc(N3CCCCC3)c2c1)C1CCCCC1", "Potency": "active: 9.61 µM"}
{"compound": "COc1ccc(-c2cc3c(cn2)CN(CCc2ccccc2)CCN3)cc1OC", "Potency": "inconclusive: 69.9 µM [inhibitor, single point]"}
{"compound": "COc1cc(F)ccc1-c1cc(-c2ccc(=O)[nH]c2)c2cncn2c1", "Potency": "inconclusive: 24.8 µM [inhibitor, partial curve]"}
{"compound": "O=C(Nc1ccc2c(N3CCCCC3)ncnc2c1)c1ccccc1C(F)(F)F", "Potency": "active: 1.71 µM"}
{"compound": "c1ccc(CCN2CCNc3cc(NCc4cccnc4)ncc3C2)cc1", "Potency": "inconclusive: 39.3 µM [inhibitor, single point]"}
{"compound": "CN1CCN(c2ncnc3sc4c(c23)CCNC4)CC1", "Potency": "active: 15.2 µM"}
{"compound": "CCNc1nccc(N2CCC(CC(=O)NCC(C)C)CC2)n1", "Potency": "inactive"}
{"compound": "Cn1ncc2c(N3CCN(S(N)(=O)=O)CC3)nc(C3CCCC3)nc21", "Potency": "inconclusive: 12.1 µM [inhibitor, full curve]"}
{"compound": "COC(=O)[C@@H]1Cc2ncn(Cc3ccc(Cl)cc3)c2CN1CCCc1ccccc1", "Potency": "active: 11.1 µM"}
{"compound": "COc1ccc(CC(=O)Nc2ccc3ncnc(N4CCCC4)c3c2)c(Cl)c1", "Potency": "inconclusive: 24.1 µM [inhibitor, partial curve]"}
{"compound": "CNc1cc(C2CC(NC(=O)COc3ccc(Cl)cc3C)C2)nc(N)n1", "note": "(stereo unspecified)", "Potency": "active: 2.71 µM"}
{"compound": "COc1ccc(-c2cc(-c3cnn(C)c3)cn3cncc23)cn1", "Potency": "inconclusive: 62.3 µM [inhibitor, single point]"}
{"compound": "O=C(NCc1cccc(Cl)c1)c1cnc2c(c1)N(C(=O)Cc1ccc(O)cc1)CCC2", "Potency": "active: 17.5 µM"}
{"compound": "Cc1ccc(-c2ccc(N)nc2)c2cccnc12", "Potency": "inactive"}
{"compound": "CN(C)c1nc2c(c(N3C[C@@H](CN4CCCC4)[C@@H](CO)C3)n1)CCCC2", "Potency": "active: 13.6 µM"}
